Assay results reported in PMC4303897.
Results are given in words; binding and its absence hold for the method and conditions named. Binding seen in cells or lysates may run through a third protein. Some entries that bind do so weakly or less than the wild type. For part of these data: Tags and fused reporters may be left off the sequences shown. Values belong to the binder of their own block, whether it stands above or below them.

What was measured:
Mic60-Myc (human) = target: T1, Mic60-Myc (human) (UniProt Q16891); assay: co-IP; lysates of HEK293T cells transfected with Mic60-Myc and TFAM-HA or TFB2M-HA; IP with antibodies to c-Myc or HA; extraction buffer 10 mM Tris-HCl pH 7.5, 150 mM NaCl, 1 mM EDTA, 0.5% NP-40, 1 mM DTT; immunoblot
T1 sequence: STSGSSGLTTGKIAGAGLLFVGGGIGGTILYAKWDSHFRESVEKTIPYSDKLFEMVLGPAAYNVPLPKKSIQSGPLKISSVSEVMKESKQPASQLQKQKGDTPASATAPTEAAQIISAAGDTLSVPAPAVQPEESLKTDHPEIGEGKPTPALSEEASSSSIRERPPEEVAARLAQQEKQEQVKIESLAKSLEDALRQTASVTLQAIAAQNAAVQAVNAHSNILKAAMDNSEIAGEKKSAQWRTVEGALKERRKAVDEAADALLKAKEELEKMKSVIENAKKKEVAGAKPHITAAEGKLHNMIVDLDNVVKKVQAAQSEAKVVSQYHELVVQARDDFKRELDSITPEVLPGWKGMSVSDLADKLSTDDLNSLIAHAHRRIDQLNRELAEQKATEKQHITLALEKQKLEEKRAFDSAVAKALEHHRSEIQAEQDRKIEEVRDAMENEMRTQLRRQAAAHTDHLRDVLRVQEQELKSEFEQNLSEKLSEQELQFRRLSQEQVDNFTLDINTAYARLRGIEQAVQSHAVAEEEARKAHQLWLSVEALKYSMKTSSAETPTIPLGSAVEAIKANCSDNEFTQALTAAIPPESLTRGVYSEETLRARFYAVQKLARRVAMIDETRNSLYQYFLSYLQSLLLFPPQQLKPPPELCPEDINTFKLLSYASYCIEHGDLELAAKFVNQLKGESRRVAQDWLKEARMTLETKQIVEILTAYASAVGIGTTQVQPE

[1] = target: T2, endogenous Mic60 (human (endogenous in HEK293T)) (UniProt Q16891); assay: co-IP; endogenous proteins in HEK293T cell lysates; rabbit polyclonal antibody to Mic60; extraction buffer 10 mM Tris-HCl pH 7.5, 150 mM NaCl, 1 mM EDTA, 0.5% NP-40, 1 mM DTT; immunoblot
T2 sequence: T1 sequence

binding (Mic60-Myc (human)): binds
B1: TFB2M-HA (protein, UniProt Q9H5Q4 20-396)
chain: AGRFCILGSEAATRKHLPARNHCGLSDSSPQLWPEPDFRNPPRKASKASLDFKRYVTDRRLAETLAQIYLGKPSRPPHLLLECNPGPGILTQALLEAGAKVVALESDKTFIPHLESLGKNLDGKLRVIHCDFFKLDPRSGGVIKPPAMSSRGLFKNLGIEAVPWTADIPLKVVGMFPSRGEKRALWKLAYDLYSCTSIYKFGRIEVNMFIGEKEFQKLMADPGNPDLYHVLSVIWQLACEIKVLHMEPWSSFDIYTRKGPLENPKRRELLDQLQQKLYLIQMIPRQNLFTKNLTPMNYNIFFHLLKHCFGRRSATVIDHLRSLTPLDARDILMQIGKQEDEKVVNMHPQDFKTLFETIERSKDCAYKWLYDETLEDR

binding (Mic60-Myc (human)): binds
B2: TFAM-HA (protein, UniProt Q00059 43-246)
chain: SSVLASCPKKPVSSYLRFSKEQLPIFKAQNPDAKTTELIRRIAQRWRELPDSKKKIYQDAYRAEWQVYKEEISRFKEQLTPSQIMSLEKEIMDKHLKRKAMTKKKELTLLGKPKRPRSAYNVYVAERFQEAKGDSPQEKLKTVKENWKNLSDSEKELYIQHAKEDETRYHNEMKSWEEQMIEVGRKDLLRRTIKKQRKYGAEEC

binding [1]: binds
B3: endogenous TFAM (protein, UniProt Q00059 43-246)
chain: B2 chain
